This is one part of the list.
Assays:
Experiment in all cases: log2 fold change, soluble protein after heating vs DMSO (PISA); higher = thermal stabilisation; K562 lysate, 10 uM; active = over 0.2 and 3.5 SD of the protein, either way, in both replicates (recomputed)
crizotinib = compound: C[C@@H](Oc1cc(-c2cnn(C3CCNCC3)c2)cnc1N)c1c(Cl)ccc(F)c1Cl [crizotinib]
Procedure, shortened: (§1)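 Following dounce homogenisation of K562 pellets in PBS pH 7.4 with 1 mM MgCl2, crude extract at 1 mg/mL protein was incubated for 30 min with 10 μM compound. Aliquots were then heated for 3 min over 48°C-58°C and pooled, NP-40 was added to 0.5% at 4°C, and soluble protein was recovered as the supernatant at 21,000xg for 90 min. Channel-sum-equalised TMTpro 16plex LC-MS/MS quantified this protein. Each value, from duplicates, is a log-two fold change in thermal stability relative to solvent controls.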

Chains of the proteins cited; added tags and fusions are not shown. Lines headed by an entry give the natural chain unless they say otherwise; changes in a name come on top.
UniProt Q53RE8: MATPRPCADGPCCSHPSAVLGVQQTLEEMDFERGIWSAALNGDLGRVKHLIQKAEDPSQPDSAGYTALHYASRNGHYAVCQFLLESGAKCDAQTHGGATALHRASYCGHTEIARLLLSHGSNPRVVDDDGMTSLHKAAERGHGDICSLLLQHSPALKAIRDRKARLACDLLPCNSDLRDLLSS
UniProt Q13686: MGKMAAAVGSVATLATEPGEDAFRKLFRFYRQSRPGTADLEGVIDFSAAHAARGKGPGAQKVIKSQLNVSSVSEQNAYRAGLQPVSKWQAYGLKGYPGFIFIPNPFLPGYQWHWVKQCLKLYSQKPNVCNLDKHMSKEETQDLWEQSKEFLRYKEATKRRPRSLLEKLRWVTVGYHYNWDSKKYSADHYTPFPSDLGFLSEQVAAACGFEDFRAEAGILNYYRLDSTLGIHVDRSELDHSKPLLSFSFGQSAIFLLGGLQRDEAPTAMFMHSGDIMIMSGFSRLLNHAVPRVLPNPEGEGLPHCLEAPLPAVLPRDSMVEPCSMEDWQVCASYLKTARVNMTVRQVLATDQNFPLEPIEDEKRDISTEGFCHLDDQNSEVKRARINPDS
UniProt Q9Y303: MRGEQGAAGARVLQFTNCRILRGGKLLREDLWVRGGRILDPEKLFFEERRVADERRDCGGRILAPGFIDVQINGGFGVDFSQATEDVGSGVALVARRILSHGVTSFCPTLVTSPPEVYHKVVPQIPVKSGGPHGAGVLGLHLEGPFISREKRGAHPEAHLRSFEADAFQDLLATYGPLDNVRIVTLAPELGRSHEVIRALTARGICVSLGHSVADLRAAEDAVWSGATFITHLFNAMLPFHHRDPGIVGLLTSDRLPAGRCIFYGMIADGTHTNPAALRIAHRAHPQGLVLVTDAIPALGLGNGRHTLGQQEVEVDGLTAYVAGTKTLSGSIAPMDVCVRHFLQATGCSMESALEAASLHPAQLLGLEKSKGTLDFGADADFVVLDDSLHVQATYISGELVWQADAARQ
UniProt Q86W74: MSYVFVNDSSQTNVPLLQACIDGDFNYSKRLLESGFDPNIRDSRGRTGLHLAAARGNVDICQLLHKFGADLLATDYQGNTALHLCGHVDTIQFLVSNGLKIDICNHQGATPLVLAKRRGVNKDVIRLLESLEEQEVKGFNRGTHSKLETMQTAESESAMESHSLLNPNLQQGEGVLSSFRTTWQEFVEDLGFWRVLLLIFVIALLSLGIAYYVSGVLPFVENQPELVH
UniProt Q9NP73: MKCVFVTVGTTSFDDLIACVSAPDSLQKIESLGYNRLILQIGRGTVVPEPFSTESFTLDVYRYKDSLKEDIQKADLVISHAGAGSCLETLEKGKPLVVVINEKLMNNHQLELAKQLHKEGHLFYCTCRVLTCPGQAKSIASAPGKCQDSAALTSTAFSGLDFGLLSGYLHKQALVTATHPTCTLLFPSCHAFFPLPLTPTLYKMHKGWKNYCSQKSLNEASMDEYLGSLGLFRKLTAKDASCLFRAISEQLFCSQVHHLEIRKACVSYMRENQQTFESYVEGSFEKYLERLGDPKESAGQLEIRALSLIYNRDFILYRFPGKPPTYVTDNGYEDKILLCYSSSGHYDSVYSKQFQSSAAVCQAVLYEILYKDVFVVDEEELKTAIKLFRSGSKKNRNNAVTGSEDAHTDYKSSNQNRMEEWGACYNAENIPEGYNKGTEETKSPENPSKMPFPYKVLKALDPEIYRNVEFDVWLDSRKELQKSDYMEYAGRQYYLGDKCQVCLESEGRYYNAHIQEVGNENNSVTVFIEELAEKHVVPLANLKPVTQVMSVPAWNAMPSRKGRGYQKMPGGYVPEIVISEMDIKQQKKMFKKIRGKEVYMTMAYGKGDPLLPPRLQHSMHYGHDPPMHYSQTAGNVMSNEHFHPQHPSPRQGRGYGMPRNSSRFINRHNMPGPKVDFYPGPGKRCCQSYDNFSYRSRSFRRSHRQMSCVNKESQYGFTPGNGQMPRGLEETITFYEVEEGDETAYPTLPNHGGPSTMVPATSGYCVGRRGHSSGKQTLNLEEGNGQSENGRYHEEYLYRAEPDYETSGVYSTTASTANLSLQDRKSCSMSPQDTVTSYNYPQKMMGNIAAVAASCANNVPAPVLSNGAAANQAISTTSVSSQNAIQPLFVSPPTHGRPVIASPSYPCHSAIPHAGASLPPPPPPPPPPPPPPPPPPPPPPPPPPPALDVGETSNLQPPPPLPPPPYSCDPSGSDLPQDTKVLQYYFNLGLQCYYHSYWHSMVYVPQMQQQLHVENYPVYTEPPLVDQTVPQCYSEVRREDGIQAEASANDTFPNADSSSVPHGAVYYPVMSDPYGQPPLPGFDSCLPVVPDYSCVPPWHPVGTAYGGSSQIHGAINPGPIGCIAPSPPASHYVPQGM
UniProt Q9NYG5, whole entry, looked up: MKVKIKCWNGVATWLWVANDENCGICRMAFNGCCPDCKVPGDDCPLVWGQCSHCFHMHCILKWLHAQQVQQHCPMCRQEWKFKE
UniProt P49189: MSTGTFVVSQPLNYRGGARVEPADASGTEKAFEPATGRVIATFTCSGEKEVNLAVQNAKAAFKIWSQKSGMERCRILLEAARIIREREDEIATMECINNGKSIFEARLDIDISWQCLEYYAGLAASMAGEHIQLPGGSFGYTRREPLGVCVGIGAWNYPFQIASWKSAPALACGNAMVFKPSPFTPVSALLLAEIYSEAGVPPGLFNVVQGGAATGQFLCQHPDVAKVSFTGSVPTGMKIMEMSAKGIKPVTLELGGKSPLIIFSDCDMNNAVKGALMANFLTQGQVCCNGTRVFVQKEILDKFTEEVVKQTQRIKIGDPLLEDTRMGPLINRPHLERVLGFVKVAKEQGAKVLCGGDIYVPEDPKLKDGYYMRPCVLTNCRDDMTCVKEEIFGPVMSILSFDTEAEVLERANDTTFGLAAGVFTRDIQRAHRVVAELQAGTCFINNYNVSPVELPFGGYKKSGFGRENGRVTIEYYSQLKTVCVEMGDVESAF
UniProt Q6DCA0: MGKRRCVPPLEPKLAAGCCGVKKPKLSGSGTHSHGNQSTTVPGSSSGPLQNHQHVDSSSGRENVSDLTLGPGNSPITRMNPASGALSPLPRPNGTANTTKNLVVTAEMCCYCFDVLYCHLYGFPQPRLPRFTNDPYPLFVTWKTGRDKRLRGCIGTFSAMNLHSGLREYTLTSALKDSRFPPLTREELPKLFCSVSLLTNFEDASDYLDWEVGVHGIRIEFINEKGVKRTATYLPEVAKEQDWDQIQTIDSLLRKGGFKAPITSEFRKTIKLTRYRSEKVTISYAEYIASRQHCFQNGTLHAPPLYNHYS
UniProt Q96QP1: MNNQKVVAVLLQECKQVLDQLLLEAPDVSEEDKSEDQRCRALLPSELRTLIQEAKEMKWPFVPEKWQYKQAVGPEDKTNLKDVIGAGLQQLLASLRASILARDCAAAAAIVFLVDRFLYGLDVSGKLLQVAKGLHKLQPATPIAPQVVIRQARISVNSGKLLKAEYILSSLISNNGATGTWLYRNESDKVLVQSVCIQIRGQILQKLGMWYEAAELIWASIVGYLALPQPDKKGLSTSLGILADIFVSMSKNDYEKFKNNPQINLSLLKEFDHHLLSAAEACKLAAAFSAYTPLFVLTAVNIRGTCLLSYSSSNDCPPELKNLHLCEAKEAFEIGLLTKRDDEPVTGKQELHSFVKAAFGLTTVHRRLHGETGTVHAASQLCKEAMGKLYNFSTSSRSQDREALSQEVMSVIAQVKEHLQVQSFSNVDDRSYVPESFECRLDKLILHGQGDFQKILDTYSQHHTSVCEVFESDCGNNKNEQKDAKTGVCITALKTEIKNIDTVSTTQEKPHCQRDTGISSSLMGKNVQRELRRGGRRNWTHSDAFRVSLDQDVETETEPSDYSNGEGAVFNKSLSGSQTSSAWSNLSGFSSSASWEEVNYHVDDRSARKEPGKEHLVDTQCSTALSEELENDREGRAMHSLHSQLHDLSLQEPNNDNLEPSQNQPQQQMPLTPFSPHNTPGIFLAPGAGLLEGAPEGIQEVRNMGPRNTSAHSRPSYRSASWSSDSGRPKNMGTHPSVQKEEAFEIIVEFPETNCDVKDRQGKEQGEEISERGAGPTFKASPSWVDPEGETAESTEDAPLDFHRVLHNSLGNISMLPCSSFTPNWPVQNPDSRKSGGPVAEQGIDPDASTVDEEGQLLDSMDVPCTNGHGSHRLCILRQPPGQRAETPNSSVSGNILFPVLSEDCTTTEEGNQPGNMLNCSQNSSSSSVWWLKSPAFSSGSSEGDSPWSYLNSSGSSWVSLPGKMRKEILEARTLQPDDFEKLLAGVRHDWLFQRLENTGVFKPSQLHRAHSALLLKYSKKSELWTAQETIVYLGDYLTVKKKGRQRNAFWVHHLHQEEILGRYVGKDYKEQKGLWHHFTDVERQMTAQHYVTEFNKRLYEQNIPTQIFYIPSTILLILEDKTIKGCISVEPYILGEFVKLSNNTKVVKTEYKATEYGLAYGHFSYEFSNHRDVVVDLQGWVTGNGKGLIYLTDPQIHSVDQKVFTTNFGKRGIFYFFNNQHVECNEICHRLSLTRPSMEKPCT
UniProt P47895: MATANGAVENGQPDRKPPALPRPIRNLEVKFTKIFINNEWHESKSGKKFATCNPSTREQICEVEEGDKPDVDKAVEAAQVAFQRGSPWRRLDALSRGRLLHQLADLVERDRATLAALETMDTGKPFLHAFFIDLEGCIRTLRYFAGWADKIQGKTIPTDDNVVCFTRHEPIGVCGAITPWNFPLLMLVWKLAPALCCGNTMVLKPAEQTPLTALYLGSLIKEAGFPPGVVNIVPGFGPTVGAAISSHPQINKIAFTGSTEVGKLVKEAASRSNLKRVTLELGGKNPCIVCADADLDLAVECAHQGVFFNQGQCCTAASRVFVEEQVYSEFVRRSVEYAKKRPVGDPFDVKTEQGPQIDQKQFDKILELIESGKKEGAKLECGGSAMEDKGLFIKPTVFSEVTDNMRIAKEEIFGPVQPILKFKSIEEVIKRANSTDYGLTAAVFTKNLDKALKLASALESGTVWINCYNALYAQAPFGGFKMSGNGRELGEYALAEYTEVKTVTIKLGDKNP
UniProt Q9BT30: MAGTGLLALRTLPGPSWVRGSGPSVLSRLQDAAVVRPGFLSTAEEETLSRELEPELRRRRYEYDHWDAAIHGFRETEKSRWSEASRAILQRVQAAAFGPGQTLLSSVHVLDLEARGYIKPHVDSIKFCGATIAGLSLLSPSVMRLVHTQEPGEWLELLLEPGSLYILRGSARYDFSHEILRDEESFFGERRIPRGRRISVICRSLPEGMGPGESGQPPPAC
UniProt Q8IY63: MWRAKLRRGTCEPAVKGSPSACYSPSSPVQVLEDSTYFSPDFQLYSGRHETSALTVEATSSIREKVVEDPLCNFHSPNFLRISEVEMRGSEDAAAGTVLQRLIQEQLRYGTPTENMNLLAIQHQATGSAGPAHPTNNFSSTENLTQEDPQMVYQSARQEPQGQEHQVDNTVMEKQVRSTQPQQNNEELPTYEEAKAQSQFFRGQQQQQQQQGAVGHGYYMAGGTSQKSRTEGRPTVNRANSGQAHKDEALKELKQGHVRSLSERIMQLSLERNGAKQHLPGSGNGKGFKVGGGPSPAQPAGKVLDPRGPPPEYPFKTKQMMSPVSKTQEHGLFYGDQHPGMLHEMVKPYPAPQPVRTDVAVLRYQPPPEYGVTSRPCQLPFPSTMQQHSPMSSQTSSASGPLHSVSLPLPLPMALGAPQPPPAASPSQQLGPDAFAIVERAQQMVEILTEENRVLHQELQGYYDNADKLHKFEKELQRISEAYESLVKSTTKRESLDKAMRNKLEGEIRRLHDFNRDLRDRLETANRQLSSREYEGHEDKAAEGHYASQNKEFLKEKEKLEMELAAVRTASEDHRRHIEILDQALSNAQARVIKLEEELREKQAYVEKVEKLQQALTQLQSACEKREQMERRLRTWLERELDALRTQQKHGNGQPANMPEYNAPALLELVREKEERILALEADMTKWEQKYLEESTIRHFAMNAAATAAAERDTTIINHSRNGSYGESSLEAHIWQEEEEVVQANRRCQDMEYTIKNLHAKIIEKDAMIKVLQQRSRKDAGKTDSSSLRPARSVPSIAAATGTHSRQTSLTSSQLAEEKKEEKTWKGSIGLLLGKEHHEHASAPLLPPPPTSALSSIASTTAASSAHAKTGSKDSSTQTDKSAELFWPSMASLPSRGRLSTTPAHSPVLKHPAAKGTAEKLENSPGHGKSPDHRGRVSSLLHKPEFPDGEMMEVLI

[1] = compound: C[C@H](C1=CC=C(C=C1)C(=O)NC2=C3C=CNC3=NC=C2)N
Procedure, shortened: as §1

duvelisib = compound: C[C@H](Nc1ncnc2nc[nH]c12)c1cc2cccc(Cl)c2c(=O)n1-c1ccccc1 [duvelisib]
Procedure, shortened: as §1

gandotinib = compound: Cc1cc(Nc2cc(CN3CCOCC3)c3nc(C)c(Cc4ccc(Cl)cc4F)n3n2)n[nH]1 [gandotinib]
Procedure, shortened: as §1

doramapimod = compound: Cc1ccc(-n2nc(C(C)(C)C)cc2NC(=O)Nc2ccc(OCCN3CCOCC3)c3ccccc23)cc1 [doramapimod]
Procedure, shortened: as §1

[2] = compound: Cc1cccc(CC(=O)N2CCc3c2ccc(-c2cn(C)c4ncnc(N)c24)c3F)n1
Procedure, shortened: as §1

nilotinib = compound: Cc1cn(-c2cc(NC(=O)c3ccc(C)c(Nc4nccc(-c5cccnc5)n4)c3)cc(C(F)(F)F)c2)cn1 [nilotinib]
Procedure, shortened: as §1

[3] = compound: Cc1nc(Nc2n[nH]c3c2CN(C(=O)N[C@H](CN(C)C)c2ccccc2)C3(C)C)c2sccc2n1
Procedure, shortened: as §1

dasatinib = compound: Cc1nc(Nc2ncc(C(=O)Nc3c(C)cccc3Cl)s2)cc(N2CCN(CCO)CC2)n1 [dasatinib]
Procedure, shortened: as §1

[4] = compound: Cc1ncc(-c2ccnc(Nc3ccc(S(C)(=O)=O)cc3)n2)n1C(C)C
Procedure, shortened: as §1

[5] = compound: Cn1cc(-c2ccc3c(c2)CCN3C(=O)Cc2cccc(C(F)(F)F)c2)c2c(N)ncnc21
Procedure, shortened: as §1

quisinostat = compound: Cn1cc(CNCC2CCN(c3ncc(C(=O)NO)cn3)CC2)c2ccccc21 [quisinostat]
Procedure, shortened: as §1

tipifarnib = compound: Cn1cncc1[C@@](N)(c1ccc(Cl)cc1)c1ccc2c(c1)c(-c1cccc(Cl)c1)cc(=O)n2C [tipifarnib]
Procedure, shortened: as §1

[6] = compound: NC(=O)Nc1cc(-c2cccc(F)c2)sc1C(=O)N[C@H]1CCCNC1
Procedure, shortened: as §1

tozasertib = compound: Cc1cc(Nc2cc(N3CCN(C)CC3)nc(Sc3ccc(NC(=O)C4CC4)cc3)n2)n[nH]1 [tozasertib]
Procedure, shortened: as §1

[7] = compound: NC1(c2ccc(-c3nc4ccn5c(=O)[nH]nc5c4cc3-c3ccccc3)cc2)CCC1
Procedure, shortened: as §1

pictilisib = compound: CS(=O)(=O)N1CCN(Cc2cc3nc(-c4cccc5[nH]ncc45)nc(N4CCOCC4)c3s2)CC1 [pictilisib]
Procedure, shortened: as §1

bafetinib = compound: Cc1ccc(NC(=O)c2ccc(CN3CC[C@H](N(C)C)C3)c(C(F)(F)F)c2)cc1Nc1nccc(-c2cncnc2)n1 [bafetinib]
Procedure, shortened: as §1

Measured: log2 fold change

ANKRD39 (UniProt Q53RE8)
inactive: crizotinib -0.091 | [1] 0.131 | duvelisib -0.123 | gandotinib -0.085 | doramapimod 0.333 | [2] 0.027 | nilotinib 0.03 | [3] 0.035 | dasatinib -0.151 | [4] -0.066 | [5] 0.081 | quisinostat -0.015 | tipifarnib -0.002 | [6] -0.005

ALDH18A1 isoform 2 (UniProt P54886)
inactive: crizotinib 0.127 | duvelisib 0.088 | doramapimod -0.134 | dasatinib 0.089 | [5] 0.181 | quisinostat 0.397 | [6] -0.093

ALKBH1 (UniProt Q13686)
inactive: [1] -0.016 | duvelisib 0.014 | gandotinib 0 | tozasertib 0.09 | [2] 0.048 | nilotinib -0.087 | [3] -0.026 | dasatinib -0.249 | [4] -0.052 | [5] 0.007 | tipifarnib 0.137 | [7] 0.116

ANAPC15 isoform 2 (UniProt P60006)
inactive: crizotinib 0.039 | [1] 0.002 | duvelisib -0.056 | gandotinib 0.074 | tozasertib -0.194 | doramapimod -0.01 | [2] 0 | nilotinib 0.057 | [3] -0.078 | dasatinib 0.08 | [4] 0.048 | [5] -0.026 | quisinostat -0.213 | tipifarnib -0.101 | [6] 0.074 | [7] 0.019

AP1S2 (UniProt H7BZG6)
inactive: [7] 0.185

AMDHD2 (UniProt Q9Y303)
inactive: crizotinib -0.056 | [1] 0.052 | gandotinib -0.015 | doramapimod 0.057 | [2] 0.065 | quisinostat -0.001 | [6] 0.048

ANKRD46 (UniProt Q86W74)
inactive: crizotinib -0.135 | [1] -0.096 | duvelisib 0.04 | gandotinib 0.011 | doramapimod 0.175 | [2] 0.055 | dasatinib 0.067 | [5] 0.075 | quisinostat 0.034 | [6] -0.09 | [7] -0.013

ALG13 isoform 2 (UniProt Q9NP73)
inactive: [1] 0.054 | gandotinib -0.088 | [2] 0.106 | nilotinib 0.142 | [3] -0.082 | [4] -0.066 | tipifarnib 0.371

ANAPC11 (UniProt Q9NYG5)
inactive: pictilisib -0.162 | crizotinib -0.089 | [1] 0.112 | duvelisib -0.186 | gandotinib 0.039 | doramapimod 0.003 | bafetinib 0.099 | [2] -0.182 | dasatinib -0.142 | [5] 0.053 | quisinostat 0.095 | [6] -0.057

ALDH9A1 (UniProt P49189)
inactive: pictilisib 0.013 | crizotinib 0.105 | duvelisib 0.023 | doramapimod 0.01 | bafetinib -0.081 | dasatinib 0.008 | [5] -0.097 | quisinostat 0.013 | [6] 0.043

AMMECR1L (UniProt Q6DCA0)
inactive: crizotinib 0.047 | [1] -0.087 | duvelisib 0.043 | gandotinib 0.124 | tozasertib 0.079 | doramapimod 0.099 | [2] 0.043 | dasatinib -0.011 | [5] 0.024 | quisinostat -0.151 | [6] 0.019 | [7] 0.124

ALPK1 (UniProt Q96QP1)
inactive: [7] 0.046

ALDH1A3 (UniProt P47895)
inactive: tozasertib 0.447

ALKBH7 (UniProt Q9BT30)
inactive: crizotinib -0.049 | [1] 0.289 | duvelisib 0.091 | gandotinib 0.08 | tozasertib -0.045 | doramapimod -0.062 | [2] 0.187 | nilotinib -0.039 | [3] -0.04 | dasatinib -0.017 | [4] -0.452 | [5] -0.226 | quisinostat 0.006 | tipifarnib 0.107 | [6] 0.044 | [7] -0.099

ANK2 (UniProt Q01484)
inactive: pictilisib 0.149 | crizotinib -0.018 | [1] 0.019 | duvelisib 0 | gandotinib -0.224 | doramapimod -0.064 | bafetinib 0.223 | [2] -0.018 | nilotinib -0.068 | [3] -0.077 | dasatinib -0.095 | [4] 0.109 | [5] 0.077 | quisinostat -0.086 | tipifarnib 0.145 | [6] -0.065

Quoted from the entries so far (3 entries):
ALPK1 (UniProt Q96QP1)
inactive: [7] 0.046

ALDH1A3 (UniProt P47895)
inactive: tozasertib 0.447

ALKBH7 (UniProt Q9BT30)
inactive: crizotinib -0.049 | [1] 0.289 | duvelisib 0.091 | gandotinib 0.08 | tozasertib -0.045 | doramapimod -0.062 | [2] 0.187 | nilotinib -0.039 | [3] -0.04 | dasatinib -0.017 | [4] -0.452 | [5] -0.226 | quisinostat 0.006 | tipifarnib 0.107 | [6] 0.044 | [7] -0.099

The listing continues.

ALAS2 (UniProt P22557)
inactive: crizotinib -0.025 | doramapimod -0.038 | quisinostat -0.014 | [6] 0

AMOTL1 (UniProt Q8IY63)
inactive: pictilisib -0.049 | crizotinib 0.023 | [1] 0.017 | duvelisib -0.11 | gandotinib -0.166 | tozasertib 0.041 | doramapimod 0.012 | bafetinib 0.006 | [2] 0.065 | nilotinib 0 | [3] 0.081 | dasatinib 0.034 | [4] 0.198 | [5] -0.18 | quisinostat -0.048 | tipifarnib -0.062 | [6] 0.01 | [7] 0.003

— the supplement of paper PMC10849652
